The source of these data is PubChem BioAssay AID330 (DTP/NCI, 2004).

For the assay, the system named is P388 leukemia ip, CD2F1 mice, survival T/C. The assay can be described thus: NCI In Vivo Anticancer Drug Screen. Data for tumor model P388 Leukemia (intraperitoneal) in CD2F1 (CDF1) mice. As to conditions: T/C endpoint: median survival time, higher T/C = longer survival.
Setting [1] is: dose: 50.0 mg/kg/injection, schedule: Q04DX003 (ip), vehicle: saline with Tween-80.
[2] abbreviates: dose: 200.0 mg/kg/injection, schedule: Q01DX009 (ip), vehicle: saline.
[3] abbreviates: dose: 400.0 mg/kg/injection, schedule: Q04DX003 (ip), vehicle: saline with Tween-80.
Where [4] appears, read: dose: 100.0 mg/kg/injection, schedule: Q01DX009 (ip), vehicle: saline with Tween-80.
The mark [5] stands for this setting: dose: 200.0 mg/kg/injection, schedule: Q01DX009 (ip), vehicle: Klucel (hydroxypropylcellulose) (HPC).
The mark [6] stands for this setting: dose: 25.0 mg/kg/injection, schedule: Q01DX009 (ip), vehicle: saline with Tween-80.
Where [7] appears, read: dose: 50.0 mg/kg/injection, schedule: Q01DX005 (ip), vehicle: saline with Tween-80.
Setting [8] is: dose: 100.0 mg/kg/injection, schedule: Q01DX005 (ip), vehicle: saline with Tween-80.
The mark [9] stands for this setting: dose: 200.0 mg/kg/injection, schedule: Q01DX005 (ip), vehicle: saline with Tween-80.
Setting [10] is: dose: 120.0 mg/kg/injection, schedule: Q01DX005 (ip), vehicle: Klucel (hydroxypropylcellulose) (HPC).

Molecules are shown by their SMILES. The list is a part of this screen's results and no random one: it gathers tests that were run many times, whatever their T/C, doses with no T/C, and many T/C values between a quarter and a half above the control. Other doses and runs of a compound stand elsewhere. T/C: endpoint of the treated group in % of that of the vehicle group. Some doses have a count of surviving animals in place of a T/C: the source holds a T/C of zero for them, seemingly a mark for toxic or unscored doses. Some survivor counts are full or nearly so, which does not show that the dose was tolerated: survival well below the control is almost never listed, so the zero probably covers shortened survival too. Counts of survivors are from the toxicity check (mostly the fifth day) where no day follows; animals may have died later. Schedule codes are those of the source, taken here to give the interval after Q, in days (D) or hours (H), and the number of doses after X. Some doses were run more than once; the values are given in rising order. Where survival is the endpoint, this PubChem deposit counts one and a half times the control or more as active, and values a quarter to a half above the control carry no call in these data; other NCI protocols may use other cut-offs. Some T/C values carry the count of animals alive at the toxicity check (mostly the fifth day); without a count, all were alive then.

`CCCCCCNP(=O)(N1CC1)N1CC1`: the T/C runs as follows: (dose: 6.25 mg/kg/injection, schedule: Q04DX003 (ip), vehicle: saline) 127 % of control; (dose: 12.5 mg/kg/injection, schedule: Q04DX003 (ip), vehicle: saline) 136 % of control. For the same compound, the survivor count runs as follows: (dose: 16.5 mg/kg/injection, schedule: Q04DX003 (ip), vehicle: saline with Tween-80) 0 of 6; (dose: 25.0 mg/kg/injection, schedule: Q04DX003 (ip), vehicle: saline with Tween-80) 1 of 6; (dose: 37.5 mg/kg/injection, schedule: Q04DX003 (ip), vehicle: saline with Tween-80) 0 of 6; (dose: 40.0 mg/kg/injection, schedule: Q01DX009 (ip), vehicle: saline) 6 of 6; under setting [1], 6 of 6.

Regarding `COC(OC)C(C)(C)NC(C)(C)C`, the survivor count under setting [2] is 0 of 6.

With `C=C1C(=O)OC2C1CCC(C)=C1C(=O)C=C(C)C12` (stereo unspecified), the survivor count under setting [3] is recorded as 0 of 6.

As for `CCCCCCCCCCCCCCOc1ccc(C(C)=O)o1`, the survivor count under setting [4] is on record as 6 of 6.

In the case of `C=CCN1CCCSC1=S`, the survivor count under setting [5] is reported as 0 of 6.

Take `COC(CN1C(=O)CSC1=S)OC`: the survivor count under setting [6] was 5 of 6.

Regarding `CNc1c([N+](=O)[O-])cc2[nH]c(C)nc2c1[N+](=O)[O-]`, the survivor count was 0 of 6 under setting [1]; 0 of 6 and 2 of 6 (dose: 100.0 mg/kg/injection, schedule: Q04DX003 (ip), vehicle: saline with Tween-80); 0 of 6 (dose: 200.0 mg/kg/injection, schedule: Q04DX003 (ip), vehicle: saline with Tween-80); 0 of 6 under setting [3].

On to `COc1ccc2c(c1)c(NCCCCCC#N)cc(C)[n+]2C`, for which the survivor count is, setting by setting: under setting [7], 3 of 5; under setting [8], 1 of 5; under setting [9], 0 of 5.

As for `CCC1OC(=O)CC(O)C(C)C(OC2OC(C)C(O)C(N(C)C)C2O)C(CC=O)CC(C)C(=O)/C=C/C2(C)OC2C1C` (stereo unspecified), the T/C (dose: 37.5 mg/kg/injection, schedule: Q01DX009 (ip), vehicle: Klucel (hydroxypropylcellulose) (HPC)) was 125 % of control.

As for `CCCCCCCCCCCCCCCCCCCC[N+]1([O-])CCOCC1`, the survivor count runs as follows: (dose: 100.0 mg/kg/injection, schedule: Q01DX009 (ip), vehicle: saline) 6 of 6; under setting [2], 4 of 6.

Consider `O=C(O)C1CC1.[Ag]`, for which the T/C (dose: 1.56 mg/kg/injection, schedule: Q01DX009 (ip), vehicle: saline with Tween-80) was 135 % of control. Further, the survivor count reads like this: under setting [6], 0 of 6; (dose: 50.0 mg/kg/injection, schedule: Q01DX009 (ip), vehicle: saline with Tween-80) 0 of 6; under setting [4], 0 of 6; (dose: 200.0 mg/kg/injection, schedule: Q01DX009 (ip), vehicle: saline with Tween-80) 0 of 6.

With `O=C(COCC(=O)N/N=C/c1ccc(Cl)cc1)N/N=C/c1ccc(Cl)cc1`, the survivor count by setting is: (dose: 25.0 mg/kg/injection, schedule: Q01DX005 (ip), vehicle: saline with Tween-80) 5 of 5; under setting [7], 5 of 5; under setting [8], 5 of 5.

Consider `CC(=O)N1CN=C2Sc3ccccc3N2C1`, for which the survivor count is reported as 3 of 6 under setting [10] and 0 of 6 (dose: 240.0 mg/kg/injection, schedule: Q01DX005 (ip), vehicle: Klucel (hydroxypropylcellulose) (HPC)).

Regarding `COc1nc(OC)c2cnn(-c3ccc(Cl)cc3)c2n1`, the survivor count is recorded as 6 of 6 (dose: 60.0 mg/kg/injection, schedule: Q01DX005 (ip), vehicle: Klucel (hydroxypropylcellulose) (HPC)) and 6 of 6 under setting [10].

Regarding `COc1cc(N=Nc2ccccc2)cc(/C=N\NC(=S)Nc2ccccc2)c1O`, under setting [9], the survivor count was 1 of 6.

For `O=[N+]([O-])c1cc(Cl)ccc1S(=O)(=O)CCCl`, the survivor count by setting is: (dose: 100.0 mg/kg/injection, schedule: Q04DX002 (ip), vehicle: Klucel (hydroxypropylcellulose) (HPC)) 0 of 6; (dose: 200.0 mg/kg/injection, schedule: Q04DX002 (ip), vehicle: Klucel (hydroxypropylcellulose) (HPC)) 0 of 6; (dose: 400.0 mg/kg/injection, schedule: Q04DX002 (ip), vehicle: Klucel (hydroxypropylcellulose) (HPC)) 0 of 6.

As for `CNC(=O)Nc1ccnc2ccc3c(ncn3C(=O)NC)c12`, where the note is “dose: 400.0 mg/kg/injection, schedule: Q01DX001 (ip), vehicle: saline with Tween-80”, the survivor count is 0 of 6.

Consider `C[Si]1(C)N[Si](C)(C)N[Si](C)(C)N1`, for which the survivor count (dose: 400.0 mg/kg/injection, schedule: Q01DX009 (ip), vehicle: saline with Tween-80) is 0 of 6.

Regarding `CCC1(O)CC2CN(CCc3c([nH]c4ccccc34)C(C(=O)OC)(c3cc4c(cc3OC)N(C)C3C(O)(C(=O)NCCSSCCNC(=O)C5(O)C(O)C6(CC)C=CCN7CCC8(c9cc(C%10(C(=O)OC)CC%11CN(CCc%12c%10[nH]c%10ccccc%12%10)CC(O)(CC)C%11)c(OC)cc9N(C)C58)C76)C(O)C5(CC)C=CCN6CCC43C65)C2)C1` (stereo unspecified), the T/C (dose: 0.09 mg/kg/injection, schedule: Q04DX003 (ip), vehicle: saline) is 136 % of control. Moreover, the survivor count (dose: 0.8 mg/kg/injection, schedule: Q01DX009 (ip), vehicle: saline) was 8 of 8; the survivor count (dose: 3.0 mg/kg/injection, schedule: Q04DX003 (ip), vehicle: saline) was 6 of 8 and 5 of 6.

Take `CC(=O)O[C@@H]1C[C@H]2C(C)(C)C(=O)C=C[C@]2(C)[C@H]2CC[C@]3(C)C(=CC(=O)O[C@H]3c3ccoc3)[C@@]21C`: the survivor count reads like this: (dose: 5.0 mg/kg/injection, schedule: Q01DX009 (ip), vehicle: Klucel (hydroxypropylcellulose) (HPC)) 6 of 6; (dose: 20.0 mg/kg/injection, schedule: Q01DX009 (ip), vehicle: Klucel (hydroxypropylcellulose) (HPC)) 6 of 6; (dose: 40.0 mg/kg/injection, schedule: Q01DX009 (ip), vehicle: Klucel (hydroxypropylcellulose) (HPC)) 6 of 6.

As for `COc1cc(OC)c(C(=O)/C=C/c2ccncc2)cc1C(=O)O`, the T/C runs as follows: (dose: 200.0 mg/kg/injection, schedule: Q01DX009 (ip), vehicle: suspension in saline) 128 [5 of 6 alive] and 130 % of control; (dose: 400.0 mg/kg/injection, schedule: Q01DX009 (ip), vehicle: suspension in saline) 129 % of control [4 of 6 alive].

As for `O=C1NC(Cc2ccccc2)C(=O)NC1Cc1ccccc1` (stereo unspecified), the survivor count (dose: 100.0 mg/kg/injection, schedule: Q01DX009 (ip), vehicle: Klucel (hydroxypropylcellulose) (HPC)) is given as 5 of 6 and the survivor count under setting [5] is 0 of 6.

On to `CN(C)CCCOc1ccccc1NC1=C(Cl)C(=O)C(Nc2ccccc2OCCCN(C)C)=C(Cl)C1=O`, for which the survivor count reads like this: (dose: 50.0 mg/kg/injection, schedule: Q01DX005 (ip), vehicle: Klucel (hydroxypropylcellulose) (HPC)) 4 of 5; (dose: 100.0 mg/kg/injection, schedule: Q01DX005 (ip), vehicle: Klucel (hydroxypropylcellulose) (HPC)) 4 of 5; (dose: 200.0 mg/kg/injection, schedule: Q01DX005 (ip), vehicle: Klucel (hydroxypropylcellulose) (HPC)) 0 of 5.

On to `CCCCCCCCCCN(CCCCCCCCCC)CC(O)c1ccc2nc3c(cc2c1)CCCC3` (stereo unspecified), for which the survivor count is, setting by setting: under setting [8], 0 of 5; under setting [9], 0 of 5.

Regarding `CCn1c(=O)c2n[nH]nc2n(CCO)c1=O`, the survivor count under setting [5] is on record as 6 of 6.
